Data source: PubChem BioAssay AID743121 (NCATS, 2013)

Purpose: 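Knock-downs that sensitise breast cancer cells to camptothecin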 (primary screen)
Cell system: MDA-MB-231 cells, a human breast cancer line
Reagents: single siRNA against human genes, 20 nM siRNA (0.8 pmol per well)
Timing: 120 h (drug added 48 h after transfection, read 72 h later)
Treatment: camptothecin 20 nM (about EC30) for 72 h; vehicle 0.1% DMSO in parallel plates
Read-out: 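Cell viability by ATP luminescence (CellTiter-Glo) as % of non-targeting siRNA wells, and the log2 ratio of viability without drug over viability with camptothecin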
Scale: log2 vehicle/camptothecin viability: higher = stronger sensitisation to camptothecin
Hit rule: 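Active genes have an RSA gene-level p-value below 0.001, computed from the ratios of their separate siRNAs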
Shown is an unselected part of about 26,000 reagents. Over the whole deposit, 167 (0.63%) were called active. 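Calls are per gene from RSA p-values that are not deposited; an individual active-marked siRNA can sensitise only weakly.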 A number with no mark means an inactive call. The numbers tell different reagents against one gene apart. Not all columns of the deposit are shown. Reagent sequences are not shown.

gene | reagent no. | log2 vehicle/camptothecin viability
PLIN3 | 1 | -0.247
PLIN3 | 2 | -0.449
PLIN3 | 3 | -0.225
PLIN3 | 4 | -0.658
F11R | 1 | 0.157
F11R | 2 | -0.0573
F11R | 3 | -1.04
F11R | 4 | -0.322
CDKN1A | 1 | -0.0836
CDKN1A | 2 | -0.313
CDKN1A | 3 | -0.022
CDKN1A | 4 | -0.237
CCNC | 1 | -0.0591
CCNC | 2 | -0.252
CCNC | 3 | -0.28
CCNC | 4 | 0.0312
DCSTAMP | 1 | -0.237
DCSTAMP | 2 | -0.00527
DCSTAMP | 3 | -0.135
DCSTAMP | 4 | -0.14
NOD1 | 1 | 0.0553
NOD1 | 2 | -0.226
NOD1 | 3 | -0.41
NOD1 | 4 | 0.361
KIF13B | 1 | 0.0816
KIF13B | 2 | -0.0195
KIF13B | 3 | -0.0251
PCDH9 | 1 | -0.235
PCDH9 | 2 | -0.394
PCDH9 | 3 | -0.365
PCDH9 | 4 | -0.37
GPR68 | 1 | -0.488
GPR68 | 2 | 0.269
GPR68 | 3 | -0.111
GPR68 | 4 | -0.162
MRPL23 | 1 | -0.453
MRPL23 | 2 | 0.0649
MRPL23 | 3 | -0.443
MRPL23 | 4 | -0.283
BRMS1L | 1 | -0.0327
BRMS1L | 2 | -0.318
BRMS1L | 3 | 0.102
BRMS1L | 4 | -0.286
KIF1C | 1 | -0.267
KIF1C | 2 | -0.119
KIF1C | 3 | -0.742
KIF1C | 4 | 0.0592
ITGAX | 1 | -0.28
ITGAX | 2 | -0.0287
ITGAX | 3 | -0.356
CDK5 | 1 | -0.519
CDK5 | 2 | -0.298
CDK5 | 3 | -0.578
CDK5 | 4 | -0.68
SLC12A9 | 1 | -0.0899
SLC12A9 | 2 | -0.296
SLC12A9 | 3 | -0.412
SLC12A9 | 4 | -0.508
TP53INP1 | 1 | 0.0863
TP53INP1 | 2 | -0.0381
TP53INP1 | 3 | -0.109
TP53INP1 | 4 | -0.441
SLC4A10 | 1 | -0.0398
SLC4A10 | 2 | -0.447
SLC4A10 | 3 | -0.117
SLC4A10 | 4 | 0.275
SPTLC1 | 1 | -0.301
SPTLC1 | 2 | 0.0535
SPTLC1 | 3 | -0.167
SPTLC1 | 4 | -0.0653
SPTLC1 | 5 | -0.0647
SPTLC1 | 6 | 0.0291
SPTLC1 | 7 | -0.537
SPTLC1 | 8 | -0.501

Copied from the list.
For “log2 vehicle/camptothecin viability”, DCSTAMP #4 is entered as -0.14
For “log2 vehicle/camptothecin viability”, SLC4A10 #3 reads -0.117
Under “log2 vehicle/camptothecin viability”, PCDH9 #4 has -0.37
Entry for KIF13B #2 in “log2 vehicle/camptothecin viability”: -0.0195
For “log2 vehicle/camptothecin viability”, PLIN3 #2 shows -0.449
TP53INP1 #3, log2 vehicle/camptothecin viability → -0.109
